No constants are given. Whether binding was seen depends on the method and setting. Binding seen in cells or lysates may run through a third protein. Some binding calls cover weakened binding; strength is not graded here. Tags and fused reporters may be left off the sequences shown.
T1: HA-tagged E3 ligase FBX011 (UniProt Q86XK2)
T1 sequence: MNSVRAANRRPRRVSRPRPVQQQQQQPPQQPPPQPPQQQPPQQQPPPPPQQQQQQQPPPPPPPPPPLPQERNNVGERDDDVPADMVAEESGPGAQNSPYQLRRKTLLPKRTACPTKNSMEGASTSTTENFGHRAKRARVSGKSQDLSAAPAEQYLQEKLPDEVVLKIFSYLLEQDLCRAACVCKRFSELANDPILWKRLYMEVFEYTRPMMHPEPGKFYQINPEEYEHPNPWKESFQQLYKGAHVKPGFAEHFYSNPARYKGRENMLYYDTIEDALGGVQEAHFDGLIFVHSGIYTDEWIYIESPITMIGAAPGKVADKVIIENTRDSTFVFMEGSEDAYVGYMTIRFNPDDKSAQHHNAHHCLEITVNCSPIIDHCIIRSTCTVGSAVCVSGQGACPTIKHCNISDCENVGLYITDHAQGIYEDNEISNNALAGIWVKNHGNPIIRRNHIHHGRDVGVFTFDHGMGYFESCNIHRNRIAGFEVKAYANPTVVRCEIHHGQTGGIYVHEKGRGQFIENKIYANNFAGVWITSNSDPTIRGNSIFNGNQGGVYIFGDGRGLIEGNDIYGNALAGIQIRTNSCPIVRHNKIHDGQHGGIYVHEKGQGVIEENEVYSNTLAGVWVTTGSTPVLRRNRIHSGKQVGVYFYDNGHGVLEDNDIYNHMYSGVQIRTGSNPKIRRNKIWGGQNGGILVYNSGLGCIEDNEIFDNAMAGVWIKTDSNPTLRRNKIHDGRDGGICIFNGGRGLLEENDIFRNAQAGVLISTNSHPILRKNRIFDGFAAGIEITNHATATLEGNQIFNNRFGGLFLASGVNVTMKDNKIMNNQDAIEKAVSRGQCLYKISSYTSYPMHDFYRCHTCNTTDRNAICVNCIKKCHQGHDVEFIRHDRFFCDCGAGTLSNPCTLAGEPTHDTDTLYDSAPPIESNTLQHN

The chains behind the UniProt entries cited, without tags or fusion partners.
UniProt O95863, whole entry: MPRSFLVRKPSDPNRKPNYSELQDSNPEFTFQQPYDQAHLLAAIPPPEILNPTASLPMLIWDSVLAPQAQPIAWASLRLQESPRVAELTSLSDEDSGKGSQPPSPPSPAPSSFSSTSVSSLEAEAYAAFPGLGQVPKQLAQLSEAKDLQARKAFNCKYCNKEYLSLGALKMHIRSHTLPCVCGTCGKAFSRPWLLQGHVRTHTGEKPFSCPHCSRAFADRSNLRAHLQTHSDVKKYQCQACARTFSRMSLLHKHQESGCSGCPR

T2: FLAG-tagged full length NDRG2 (N-Myc downstream-regulated gene 2) (UniProt Q9UN36)
T2 sequence: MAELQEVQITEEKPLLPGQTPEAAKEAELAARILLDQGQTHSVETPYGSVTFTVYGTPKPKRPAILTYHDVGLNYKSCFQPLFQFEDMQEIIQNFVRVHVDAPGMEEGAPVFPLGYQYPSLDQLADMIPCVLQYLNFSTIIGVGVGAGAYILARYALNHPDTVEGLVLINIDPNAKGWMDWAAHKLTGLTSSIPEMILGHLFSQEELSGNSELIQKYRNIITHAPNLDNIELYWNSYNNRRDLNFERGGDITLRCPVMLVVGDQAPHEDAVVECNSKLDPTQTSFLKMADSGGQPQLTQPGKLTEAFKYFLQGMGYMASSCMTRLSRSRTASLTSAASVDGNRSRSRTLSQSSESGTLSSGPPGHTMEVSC


Assays:
[1] = molecular target: T1, HA-tagged E3 ligase FBX011; experiment: co-IP
[2] = molecular target: T2, FLAG-tagged full length NDRG2 (N-Myc downstream-regulated gene 2); experiment: co-IP

binding [1] | binding [2] | Molecule
binds |  | Myc-tagged Snail (from UniProt O95863 1-264)
 | binds | HA-tagged E3 ligase FBX011 (protein, UniProt Q86XK2 1-927) MNSVRAANRRPRRVSRPRPVQQQQQQPPQQPPPQPPQQQPPQQQPPPPPQQQQQQQPPPPPPPPPPLPQERNNVGERDDDVPADMVAEESGPGAQNSPYQLRRKTLLPKRTACPTKNSMEGASTSTTENFGHRAKRARVSGKSQDLSAAPAEQYLQEKLPDEVVLKIFSYLLEQDLCRAACVCKRFSELANDPILWKRLYMEVFEYTRPMMHPEPGKFYQINPEEYEHPNPWKESFQQLYKGAHVKPGFAEHFYSNPARYKGRENMLYYDTIEDALGGVQEAHFDGLIFVHSGIYTDEWIYIESPITMIGAAPGKVADKVIIENTRDSTFVFMEGSEDAYVGYMTIRFNPDDKSAQHHNAHHCLEITVNCSPIIDHCIIRSTCTVGSAVCVSGQGACPTIKHCNISDCENVGLYITDHAQGIYEDNEISNNALAGIWVKNHGNPIIRRNHIHHGRDVGVFTFDHGMGYFESCNIHRNRIAGFEVKAYANPTVVRCEIHHGQTGGIYVHEKGRGQFIENKIYANNFAGVWITSNSDPTIRGNSIFNGNQGGVYIFGDGRGLIEGNDIYGNALAGIQIRTNSCPIVRHNKIHDGQHGGIYVHEKGQGVIEENEVYSNTLAGVWVTTGSTPVLRRNRIHSGKQVGVYFYDNGHGVLEDNDIYNHMYSGVQIRTGSNPKIRRNKIWGGQNGGILVYNSGLGCIEDNEIFDNAMAGVWIKTDSNPTLRRNKIHDGRDGGICIFNGGRGLLEENDIFRNAQAGVLISTNSHPILRKNRIFDGFAAGIEITNHATATLEGNQIFNNRFGGLFLASGVNVTMKDNKIMNNQDAIEKAVSRGQCLYKISSYTSYPMHDFYRCHTCNTTDRNAICVNCIKKCHQGHDVEFIRHDRFFCDCGAGTLSNPCTLAGEPTHDTDTLYDSAPPIESNTLQHN
